According to publication doi:10.1101/2025.11.21.689678 (bioRxiv, 2025):
Like-named read-outs stand apart in the source and are kept apart here. These are yes or no findings as the source states them, for the method shown. For some of these results: Binding seen in cells or lysates may run through a third protein. Some entries that bind do so weakly or less than the wild type. For some of these results: Tags and fused reporters may be left off the sequences shown. Blank lines part the entries; values can stand above or below the molecule they belong to.

Sequences of proteins named here, by UniProt entry; tags and fusion partners are left off.
UniProt P43360: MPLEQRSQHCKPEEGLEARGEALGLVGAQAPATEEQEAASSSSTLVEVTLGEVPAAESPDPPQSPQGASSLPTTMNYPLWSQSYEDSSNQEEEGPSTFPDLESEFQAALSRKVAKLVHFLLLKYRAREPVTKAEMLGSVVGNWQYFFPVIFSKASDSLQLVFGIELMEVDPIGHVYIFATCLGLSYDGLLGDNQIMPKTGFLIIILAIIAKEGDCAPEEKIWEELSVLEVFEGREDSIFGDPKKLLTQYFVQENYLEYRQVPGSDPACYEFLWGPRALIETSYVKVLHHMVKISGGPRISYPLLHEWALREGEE
UniProt P55036: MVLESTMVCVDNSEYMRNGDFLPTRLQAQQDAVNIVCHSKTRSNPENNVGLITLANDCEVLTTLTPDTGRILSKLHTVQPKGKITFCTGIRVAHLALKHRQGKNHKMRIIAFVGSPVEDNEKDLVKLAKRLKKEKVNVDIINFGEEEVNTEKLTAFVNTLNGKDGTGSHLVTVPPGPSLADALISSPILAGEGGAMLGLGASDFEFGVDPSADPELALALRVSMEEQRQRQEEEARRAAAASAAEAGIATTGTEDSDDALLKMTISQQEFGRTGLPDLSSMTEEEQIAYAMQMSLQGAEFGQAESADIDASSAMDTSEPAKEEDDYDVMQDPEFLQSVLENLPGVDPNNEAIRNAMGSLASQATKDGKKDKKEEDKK

Columns and labels:
[1] = target: T1, HA-ALKBH2 (HEK293T) (human) (UniProt Q6NS38); assay: co-IP
T1 sequence: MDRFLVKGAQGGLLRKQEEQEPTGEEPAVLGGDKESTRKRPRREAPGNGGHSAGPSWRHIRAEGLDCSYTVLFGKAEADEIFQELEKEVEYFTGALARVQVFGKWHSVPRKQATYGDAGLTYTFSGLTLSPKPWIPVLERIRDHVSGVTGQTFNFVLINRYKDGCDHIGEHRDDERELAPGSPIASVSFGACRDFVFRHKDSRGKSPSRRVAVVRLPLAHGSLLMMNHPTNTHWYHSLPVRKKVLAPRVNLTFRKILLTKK

[2] = target: T2, Flag-ALKBH2 (HEK293T) (human) (UniProt Q6NS38); assay: co-IP
T2 sequence: T1 sequence

[3] = target: T3, TRIM28 SUMO-acceptor-site mutant (K554/779/804R) (human) (UniProt Q13263); assay: co-IP
T3 sequence: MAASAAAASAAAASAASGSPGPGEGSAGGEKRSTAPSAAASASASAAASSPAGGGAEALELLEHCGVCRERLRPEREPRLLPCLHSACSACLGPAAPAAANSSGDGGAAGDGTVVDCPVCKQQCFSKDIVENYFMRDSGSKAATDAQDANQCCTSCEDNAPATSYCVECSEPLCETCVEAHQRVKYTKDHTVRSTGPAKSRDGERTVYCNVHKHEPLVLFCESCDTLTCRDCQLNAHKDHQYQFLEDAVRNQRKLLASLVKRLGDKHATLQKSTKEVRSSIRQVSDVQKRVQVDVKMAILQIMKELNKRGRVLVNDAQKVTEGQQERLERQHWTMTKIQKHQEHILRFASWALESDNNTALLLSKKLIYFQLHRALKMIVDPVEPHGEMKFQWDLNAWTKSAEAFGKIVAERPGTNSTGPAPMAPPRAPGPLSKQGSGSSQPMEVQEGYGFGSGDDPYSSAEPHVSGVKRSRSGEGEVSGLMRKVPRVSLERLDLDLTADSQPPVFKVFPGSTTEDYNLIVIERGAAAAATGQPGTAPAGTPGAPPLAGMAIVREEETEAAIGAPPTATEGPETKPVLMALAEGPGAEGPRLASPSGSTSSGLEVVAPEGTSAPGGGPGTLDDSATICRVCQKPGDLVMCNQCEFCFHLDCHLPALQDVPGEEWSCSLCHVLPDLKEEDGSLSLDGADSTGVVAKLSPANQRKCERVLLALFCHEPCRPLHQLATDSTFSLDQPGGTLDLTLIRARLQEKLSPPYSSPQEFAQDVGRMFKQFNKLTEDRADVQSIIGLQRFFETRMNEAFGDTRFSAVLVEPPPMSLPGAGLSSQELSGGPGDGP

[4] = target: Flag-TRIM28 (H1299) (human) (UniProt Q13263); assay: co-IP
[5] = target: Flag-TRIM28 (HEK293T) (human) (UniProt Q13263); assay: co-IP
[6] = target: T4, HA-ALKBH2 (H1299) (human) (UniProt Q6NS38); assay: co-IP
T4 sequence: T1 sequence

[7] = target: T3, TRIM28 SUMO-acceptor-site mutant (K554/779/804R) (human); assay: co-IP; remark: listed apart in the source
[8] = target: Flag-TRIM28 (H1299) (human) (UniProt Q13263); assay: co-IP; remark: listed apart in the source
[9] = target: Flag-TRIM28 (HEK293T) (human) (UniProt Q13263); assay: co-IP; remark: listed apart in the source
MBP-TRIM28 (human) = MBP-TRIM28 (human) (UniProt Q13263); assay: pull-down
[10] = target: endogenous TRIM28 (H1299) (human (endogenous in H1299)) (UniProt Q13263); assay: co-IP

binding [1]: binds
Molecule: Flag-TRIM28 (HEK293T) (from UniProt Q13263 1-835)

binding [2]: binds
Molecule: Myc-MAGEA6 (from UniProt P43360 1-314)

binding [3]: binds
binding [4]: binds
Molecule: endogenous PSMD4 (H1299) (from UniProt P55036 1-377)

binding [5]: binds
Molecule: endogenous PSMD4 (HEK293T) (from UniProt P55036 1-377)

binding [6]: binds
Molecule: endogenous TRIM28 (H1299) (from UniProt Q13263 1-835)

binding [7]: binds
binding [8]: binds
B1: endogenous TRIM24 (H1299) (protein, UniProt O15164 1-1050)
chain: MEVAVEKAVAAAAAASAAASGGPSAAPSGENEAESRQGPDSERGGEAARLNLLDTCAVCHQNIQSRAPKLLPCLHSFCQRCLPAPQRYLMLPAPMLGSAETPPPVPAPGSPVSGSSPFATQVGVIRCPVCSQECAERHIIDNFFVKDTTEVPSSTVEKSNQVCTSCEDNAEANGFCVECVEWLCKTCIRAHQRVKFTKDHTVRQKEEVSPEAVGVTSQRPVFCPFHKKEQLKLYCETCDKLTCRDCQLLEHKEHRYQFIEEAFQNQKVIIDTLITKLMEKTKYIKFTGNQIQNRIIEVNQNQKQVEQDIKVAIFTLMVEINKKGKALLHQLESLAKDHRMKLMQQQQEVAGLSKQLEHVMHFSKWAVSSGSSTALLYSKRLITYRLRHLLRARCDASPVTNNTIQFHCDPSFWAQNIINLGSLVIEDKESQPQMPKQNPVVEQNSQPPSGLSSNQLSKFPTQISLAQLRLQHMQQQVMAQRQQVQRRPAPVGLPNPRMQGPIQQPSISHQQPPPRLINFQNHSPKPNGPVLPPHPQQLRYPPNQNIPRQAIKPNPLQMAFLAQQAIKQWQISSGQGTPSTTNSTSSTPSSPTITSAAGYDGKAFGSPMIDLSSPVGGSYNLPSLPDIDCSSTIMLDNIVRKDTNIDHGQPRPPSNRTVQSPNSSVPSPGLAGPVTMTSVHPPIRSPSASSVGSRGSSGSSSKPAGADSTHKVPVVMLEPIRIKQENSGPPENYDFPVVIVKQESDEESRPQNANYPRSILTSLLLNSSQSSTSEETVLRSDAPDSTGDQPGLHQDNSSNGKSEWLDPSQKSPLHVGETRKEDDPNEDWCAVCQNGGELLCCEKCPKVFHLSCHVPTLTNFPSGEWICTFCRDLSKPEVEYDCDAPSHNSEKKKTEGLVKLTPIDKRKCERLLLFLYCHEMSLAFQDPVPLTVPDYYKIIKNPMDLSTIKKRLQEDYSMYSKPEDFVADFRLIFQNCAEFNEPDSEVANAGIKLENYFEELLKNLYPEKRFPKPEFRNESEDNKFSDDSDDDFVQPRKKRLKSIEERQLLK

binding [9]: binds
B2: endogenous TRIM24 (HEK293T) (protein, UniProt O15164 1-1050)
chain: B1 chain

binding [8]: binds
B3: HA-ALKBH2 (H1299) (protein, UniProt Q6NS38 1-261)
chain: T1 sequence

binding (MBP-TRIM28 (human)): binds
B4: His-Flag-ALKBH2 (natural protein, human, UniProt Q6NS38 1-261, looked up)
chain: T1 sequence

binding [8]: binds
binding [10]: binds
B5: endogenous ALKBH2 (H1299) (protein, UniProt Q6NS38 1-261)
chain: T1 sequence
